Measured values published in patent US11319307B2, “2,3-dihydrobenzohurans as bromodomain inhibitors” (GLAXOSMITHKLINE INTELLECTUAL PROPERTY (NO.2) LIMITED, priority 2017, dated 2022).
Some of these results come from one statement about several compounds together. At least one compound was matched to its structure with a doubt left.

Target: T1, BRD4 BD2 (Homo sapiens, UniProt O60885, Y97A)
T1 construct: BRD4 (1-477) (Y97A) and (Y390A); made in house; host or cells: E. coli (pET15b vector)
Test: BRD4 BD2 TR-FRET competition assay
Format: binding

CNC(=O)c1cc(C(=O)NC2[C@H]3CC(O)C[C@@H]23)cc2c1OCC2(CO)c1ccccc1 (stereo partly drawn) [Example 17, (S*)—N^5-((1R,3S,5S,6r)-3-hydroxybicyclo[3.1.0]hexan-6-yl)-3-(hydroxymethyl)-N^7-methyl-3-phenyl-2,3-dihydrobenzofuran-5,7-dicarboxamide]
selectivity for BRD4 BD2 over BRD4 BD1 (BRD4 BD2 pIC50 − BRD4 BD1 pIC50, in at least one of the TR-FRET assays): ≥ 3 log unit | fold selective for BRD4 BD2 over BRD4 BD1 (restated from log unit selectivity): at least 1000 fold
